Measured values published in ChEMBL document CHEMBL3351924, “Detailed analysis and follow-up studies of a high-throughput screening for indoleamine 2,3-dioxygenase 1 (IDO1) inhibitors” (Eur J Med Chem, 2014).
≈ marks a conversion by molar mass, not a printed value.

Assay: Solubility of the compound in pH 6.5 phosphate buffer containing 5% DMSO

Structure (SMILES): COC(=O)C1=C(C)NC(C)=C(C(=O)OC)C1c1ccccc1[N+](=O)[O-] [NIFEDIPINE]
- solubility: 250 µM (≈ 86.6 µg/mL)
